No constants are given. Whether binding was seen depends on the method and setting. Some results given as binding are weak or reduced against the parent protein; the word gives no strength.
What was measured:
[1] = target: eck receptor extracellular domain (eck-x), soluble, expressed in CHO cells (human) (UniProt P29317); assay: affinity chromatography on immobilized eck-x, SDS-PAGE
[2] = target: eck receptor extracellular domain (eck-x), soluble, expressed in CHO cells (human) (UniProt P29317); assay: gel filtration fractions tested by BIAcore on immobilized eck-x

The chains behind the UniProt entries cited, without tags or fusion partners. Where a name states a change or a piece, a line headed by the entry shows the natural chain unless it says otherwise. Residues count along the entry.
UniProt P29317, residues 24-537: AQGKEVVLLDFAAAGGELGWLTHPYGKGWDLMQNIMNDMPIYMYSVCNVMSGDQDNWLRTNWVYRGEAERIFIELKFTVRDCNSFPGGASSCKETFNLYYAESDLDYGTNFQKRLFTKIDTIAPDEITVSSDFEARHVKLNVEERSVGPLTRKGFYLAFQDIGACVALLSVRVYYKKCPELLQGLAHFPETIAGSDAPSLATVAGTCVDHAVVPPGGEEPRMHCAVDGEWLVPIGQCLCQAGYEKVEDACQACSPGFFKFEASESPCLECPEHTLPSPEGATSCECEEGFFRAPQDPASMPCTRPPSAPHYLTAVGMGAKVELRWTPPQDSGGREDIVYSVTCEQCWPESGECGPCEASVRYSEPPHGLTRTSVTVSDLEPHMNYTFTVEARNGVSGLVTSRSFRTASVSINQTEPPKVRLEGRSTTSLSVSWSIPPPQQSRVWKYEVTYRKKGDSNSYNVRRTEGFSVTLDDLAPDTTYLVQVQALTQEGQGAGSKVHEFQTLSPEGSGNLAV
UniProt P20827: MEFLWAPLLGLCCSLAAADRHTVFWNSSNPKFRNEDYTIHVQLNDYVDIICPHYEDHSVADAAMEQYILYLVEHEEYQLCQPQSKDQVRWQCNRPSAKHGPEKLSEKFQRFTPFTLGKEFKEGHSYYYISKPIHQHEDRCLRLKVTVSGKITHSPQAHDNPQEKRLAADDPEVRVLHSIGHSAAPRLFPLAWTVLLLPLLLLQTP

eck receptor binding protein (EBP) purified from conditioned medium of HCT-8 or SK-BR-3 cells (from UniProt P20827 19-182) (ligand)
binding [1]: binds
binding [2]: binds

Source: US6479250 (Amgen, dated 2002)
